This assay deals with T1, Enp1-TAP (Enp1 harboring a C-terminal Tandem Affinity Purification tag) (S. cerevisiae) (UniProt P38333).
T1 sequence: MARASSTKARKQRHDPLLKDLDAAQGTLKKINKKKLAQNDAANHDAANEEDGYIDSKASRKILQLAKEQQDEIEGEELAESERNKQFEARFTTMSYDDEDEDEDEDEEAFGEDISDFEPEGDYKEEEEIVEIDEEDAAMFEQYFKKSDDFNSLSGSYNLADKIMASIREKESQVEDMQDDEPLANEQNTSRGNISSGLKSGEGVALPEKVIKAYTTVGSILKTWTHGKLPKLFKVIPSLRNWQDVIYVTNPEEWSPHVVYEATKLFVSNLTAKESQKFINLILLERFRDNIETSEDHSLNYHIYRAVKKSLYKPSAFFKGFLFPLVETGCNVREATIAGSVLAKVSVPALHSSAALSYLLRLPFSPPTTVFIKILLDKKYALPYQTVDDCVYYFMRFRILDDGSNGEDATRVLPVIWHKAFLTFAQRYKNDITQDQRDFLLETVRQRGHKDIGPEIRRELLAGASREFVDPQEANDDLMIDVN
Kind of assay: affinity purification with mass spectrometry.

Sequences of proteins named here, by UniProt entry; tags and fusion partners are left off.
UniProt P40160: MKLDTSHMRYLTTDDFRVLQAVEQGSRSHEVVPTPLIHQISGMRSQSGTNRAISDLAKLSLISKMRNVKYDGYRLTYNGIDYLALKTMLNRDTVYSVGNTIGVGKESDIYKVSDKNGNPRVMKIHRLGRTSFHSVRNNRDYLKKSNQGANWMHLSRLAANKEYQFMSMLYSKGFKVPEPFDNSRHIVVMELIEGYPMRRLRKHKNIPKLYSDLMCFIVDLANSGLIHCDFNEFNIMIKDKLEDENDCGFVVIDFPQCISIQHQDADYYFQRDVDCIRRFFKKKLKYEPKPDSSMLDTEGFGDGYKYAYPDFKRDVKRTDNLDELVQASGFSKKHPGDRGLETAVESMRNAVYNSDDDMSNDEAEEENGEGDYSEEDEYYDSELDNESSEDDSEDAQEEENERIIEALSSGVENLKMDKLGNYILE

No constants are given. Whether binding was seen depends on the method and setting. In cells and extracts the contact can be indirect. A yes stands for co-enrichment or nearness to the bait. Other partners may have been found. Sequences can lack the tags named with a protein.

Rio2 (from UniProt P40160 1-425): the binding result is “binds”.

B1: Rrp12 (protein, UniProt Q12754 1-1228)
chain: MDQDKVAFLLELEDKLAKIRSQVNSKLENQKHIAIILTAVEENIAGQATNDVSKNIVNYIISFMSLLDQAVDPSTHEIKDIQLASSSTYLLDLIFHYSPKVLLRSKFSEILTKIAPCITAEKANAPLIRAAIGCLESLLIAQDAQAWNNTYDLNVTPKRGLQGILELSLDVRPKVRKRALDAVHAVLLNPPVAPTAEHVAAVFVADFCDKQLAGILNDLSNLSNKQLKAQKTKEDINASVMRSLRLITSVVSTGQWPSSQIEPLCDVLLGVTKSSEQYLVSASFECFESMFKTMAETTISSGLAENKYLRVLDTIFALKPSNVDTLLTKSWIAVVIKGMSTYATHQPLKALRKIPGVFHIMCTYLASETPEVYQAASQCLISILSESVKDDLLLYTPSVDEKVFKNVDEIISQIAKTFIDFLSIRYSHCSREILKILVAAFNKFRYRSNPHFLKSLKIVDTWRVNEEQFMDLRNEIELVIGASISAMGPEMILAEAPLNLDNPSSERPGRAWLLPLIRDYTKNANLATFQNELAPYIKSFQSKFDKVPEESIQLRVFQTIVDQIWSTLPRFCELPMDLRESFTDEFASELSSLLYSEVELRTTICHALKVLAESNVSYAEESSSHNVLLLQRFPISEAQKNIEYLSTKSTNLLAVLFNVYTQTTPNARSYILETIDQYLKITSKEDLEKTFNNVCGLLKNSMNEESSGNVNKEKKKPQLTATLLDLIICMITYLPVSSYSALFSMFSLTVNSADALIQKRAYRIITKLSELKSGSTAVAQFISDIENVMVDSASSVQTSAKAARLTAIKTIVELLPLDHLDFIVRTVAEVILSTKDVNEKSRETAFDTLICMGRKMNEPNGIIKLFQIPGYDPTTPDQSSSISEFFKIISAGLIGESQHMVSSSITGYACLVFEFKNELDSGILMDIYDTIELYLTSNSREIVKSAIGFTKVCVLGLPEELMRPKVPELLLKLLRWSHEHTGHFKAKVKHIIERLIRRFGYDYIEANFPEEDRRLLTNIRKMRNRNKRKDEEVTTGVSDVAATKGSRFMSAFDEAVYGSDEENDNGSDQEENVAGGKMKNGAKQFIVESGDNPLDLLDSQTLAHISSTRPKKFNKNQNRARFNDDAFNFDSEGKLVVKGQPKPSTNVDDPLSAVTSGINAYLEAVKSGPVRGQRNKLKFRKNGKDSDEFGDDDDGEKDSRLMRGRVNQGNKIGKHNKKGPKFKSRKKL
As to B1, the binding result is “binds”.

B2: Tsr1 (protein, UniProt Q07381 1-788)
chain: MAGHSHRSSLKNGHKSYKSKHASKGALKRLYKGKVEKEPVGTGKPDKQVSKLQRKNKAKQLRAQRILDSIENRKLFEGKNGAAKIITIVPLVNDLDPLDILYKLLKCADDEGIMVQEVDSKRIFNVHIKKFKSNLKIIIPDMTNFLNILDCAKVADFVVFGLSGVQEVDEEFGEQIIRALELQGIASYIGVISNLSAVHEKEKFQLDVKQSLESYFKHFFPSEERVYNLEKNSDALNVLRTLCQRLPRSINWRDNRGYVVADFVDFVETSPDSGDLVIEGTVRGIGFNANRLVHIPDFGDFQLNKIEKISESSQKRKIIKEKATDSLSLELDLQTVFESNMNRDTLDEYAPEGTEDWSDYDEDFEYDGLTTARYDDHGFLPGREQTSKKAAVPKGTSDYQAKWYLDDVIDANEEEEAEQTNGKDETMMEIDDEMMVEQDNEEVAGDEEYDIEDNEGFEELSPEEEERQLREFRDMEKEDREFPDEIELEPSESAIERLKRYRGLKNLYNCDWQVDEKDPSSPAEWKRLLRIGNYKNTKNRIIKETKNEAQAIAGDRIRMFIRFPKFLLEKIQDPKQLLFAVYGLLLHEHKNAVVNFSLQRWEQYDKPVPSQEPIVVQYGVRRYTIQPLFSQGSNSPNNVHKYERFLHPDTVSVATCIAPVDFTQSPAIFFKPSPTDAKNIELIGHGTFLNADHSRILAKRAILTGHPFRFHKTVVTVRYMFFRPEDVEWFKSIPLFTKSGRSGFIKESLGTHGYFKATFDGKLSAQDVVAMSLYKRMWPMPSLPWNGM
With B2, the binding entry is “binds”.

B3: Bfr2 (protein, UniProt Q06631 1-534)
chain: MEKSLADQISDIAIKPVNKDFDIEDEENASLFQHNEKNGESDLSDYGNSNTEETKKAHYLEVEKSKLRAEKGLELNDPKYTGVKGSRQALYEEVSENEDEEEEEEEEEEKEEDALSFRTDSEDEEVEIDEEESDADGGETEEAQQKRHALSKLIQQETKQAINKLSQSVQRDASKGYSILQQTKLFDNIIDLRIKLQKAVIAANKLPLTTESWEEAKMDDSEETKRLLKENEKLFNNLFNRLINFRIKFQLGDHITQNEEVAKHKLSKKRSLKELYQETNSLDSELKEYRTAVLNKWSTKVSSASGNAALSSNKFKAINLPADVQVENQLSDMSRLMKRTKLNRRNITPLYFQKDCANGRLPELISPVVKDSVDDNENSDDGLDIPKNYDPRRKDNNAIDITENPYVFDDEDFYRVLLNDLIDKKISNAHNSESAAITITSTNARSNNKLKKNIDTKASKGRKLNYSVQDPIANYEAPITSGYKWSDDQIDEFFAGLLGQRVNFNENEDEEQHARIENDEELEAVKNDDIQIFG
As to B3, the binding entry is on record as “binds”.

B4: Utp2 (endogenous) (protein, UniProt Q99207 1-810)
chain: MAGSQLKNLKAALKARGLTGQTNVKSKNKKNSKRQAKEYDREEKKKAIAEIREEFNPFEIKAARNKRRDGLPSKTADRIAVGKPGISKQIGEEQRKRAFEARKMMKNKRGGVIDKRFGERDKLLTEEEKMLERFTRERQSQSKRNANLFNLEDDEDDGDMFGDGLTHLGQSLSLEDELANDEEDFLASKRFNEDDAELQQPQRKKTKAEVMKEVIAKSKFYKQERQKAQGIMEDQIDNLDDNFEDVMSELMMTQPKKNPMEPKTDLDKEYDIKVKELQLDKRAAPSDRTKTEEEKNAEAEEKKRELEQQRLDRMNGMIELEEGEERGVEDLDDGFWENEEDYEDDNDGIADSDDDIKFEDQGRDEGFSQILKKKNISISCPRTHDALLDQVKKLDLDDHPKIVKNIIKAYQPKLAEGNKEKLGKFTAVLLRHIIFLSNQNYLKNVQSFKRTQNALISILKSLSEKYNRELSEECRDYINEMQARYKKNHFDALSNGDLVFFSIIGILFSTSDQYHLVITPALILMSQFLEQIKFNSLKRIAFGAVLVRIVSQYQRISKRYIPEVVYFFQKILLTFIVEKENQEKPLDFENIRLDSYELGLPLDVDFTKKRSTIIPLHTLSTMDTEAHPVDQCVSVLLNVMESLDATISTVWKSLPAFNEIILPIQQLLSAYTSKYSDFEKPRNILNKVEKLTKFTEHIPLALQNHKPVSIPTHAPKYEENFNPDKKSYDPDRTRSEINKMKAQLKKERKFTMKEIRKDAKFEARQRIEEKNKESSDYHAKMAHIVNTINTEEGAEKNKYERERKLRGGKK
Turning to B4, the binding result is “binds”.

B5: Noc4 (protein, UniProt Q06512 1-552)
chain: MVLLISEIKDIAKRLTAAGDRKQYNSIIKLINELVIPENVTQLEEDETEKNLRFLVMSLFQIFRKLFSRGDLTLPSSKKSTLEKEQFVNWCRKVYEAFKTKLLAIISDIPFETSLGLDSLDVYLQLAELESTHFASEKGAPFFPNKTFRKLIIALWSSNMGEIEDVKSSGASENLIIVEFTEKYYTKFADIQYYFQSEFNQLLEDPAYQDLLLKNVGKWLALVNHDKHCSSVDADLEIFVPNPPQAIENESKFKSNFEKNWLSLLNGQLSLQQYKSILLILHKRIIPHFHTPTKLMDFLTDSYNLQSSNKNAGVVPILALNGLFELMKRFNLEYPNFYMKLYQIINPDLMHVKYRARFFRLMDVFLSSTHLSAHLVASFIKKLARLTLESPPSAIVTVIPFIYNLIRKHPNCMIMLHNPAFISNPFQTPDQVANLKTLKENYVDPFDVHESDPELTHALDSSLWELASLMEHYHPNVATLAKIFAQPFKKLSYNMEDFLDWNYDSLLNAESSRKLKTLPTLEFEAFTNVFDNEDGDSEASSQGNVYLPGVAW
For the molecule B5, the binding entry is listed as “binds”.

B6: Nob1 (protein, UniProt Q08444 1-459)
chain: MTENQTAHVRALILDATPLITQSYTHYQNYAQSFYTTPTVFQEIKDAQARKNLEIWQSLGTLKLVHPSENSIAKVSTFAKLTGDYSVLSANDLHILALTYELEIKLNNGDWRLRKKPGDALDASKADVGTDGKQKLTEDNKKEEDSESVPKKKNKRRGGKKQKAKREAREAREAENANLELESKAEEHVEEAGSKEQICNDENIKESSDLNEVFEDADDDGDWITPENLTEAIIKDSGEDTTGSLGVEASEEDRHVALNRPENQVALATGDFAVQNVALQMNLNLMNFMSGLKIKRIRNYMLRCHACFKIFPLPKDGKPKHFCASCGGQGTLLRCAVSVDSRTGNVTPHLKSNFQWNNRGNRYSVASPLSKNSQKRYGKKGHVHSKPQENVILREDQKEYEKVIKQEEWTRRHNEKILNNWIGGGSADNYISPFAITGLKQHNVRIGKGRYVNSSKRRS
Turning to B6, the binding result is reported as “binds”.

B7: Lcp5 (protein, UniProt P40079 1-357)
chain: MSELNALLKDINGSLTATSESLERLSGIYSNSATDEIPESNQLHEHLFYDAKKPAEKVSLLSLKNGSMLGYINSLLMLIGNRLDDECKDPSAMDARERSIQHRVVLERGVKPLEKKLAYQLDKLTRAYVKMEKEYKDAEKRALEKSTLVNHSGNDDSEDDESSEDEIAYRPNTSGIINTNKKSSAYRVEETAKQENGEENDDNETGVYKPPKITAVLPPQQTHFEDRFDAREHKDRSNKSRMQAMEEYIRESSDQPDWSASIGADIVNHGRGGIKSLRDTEKERRVTSFEEDNFTRLNITNKAEKRKQKQRERNARMNVIGGEDFGIFSSKRKLEDSTSRRGAKKTRSAWDRAQRRL
Turning to B7, the binding result is on record as “binds”.

For the origin of these results see publication doi:10.1101/2020.02.05.936237.
